Experimental data from PubChem BioAssay AID493014 (National Center for Advancing Translational Sciences (NCATS), 2011).
Some of the results follow. The main result of the screen is listed elsewhere. These columns were measured beside it and carry no call. Compounds called inactive in the main read-out are mostly missing here. The note in brackets gives the kind of curve behind each potency; many fits are weak.

Experiment: qHTS Assay to Find Inhibitors of Chronic Active B-Cell Receptor Signaling
Conditions: ABC-DLBCL IkBa-CBG/CBR reporter, luminescence ratio (green luciferase fused to IkBa over red control in TMD8 lymphoma cells), 4 h
Procedure, shortened: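 Concentration-response series (up to 46 uM) were applied to TMD8 dual-reporter cells for 4 h at 37C with doxycycline. Green/red ratio, after filter-overlap correction, defined %Activity; red signal alone was normalised to basal cells and zero luminescence.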

[1] = measured here: CBR red luminescence, cell number
[2] = measured here: IkBa-CBG green luminescence

Row | Structure (SMILES) | AC50 [1] | AC50 [2]
1 | CC1CCCCN1C(=O)CSc1nnc(Cc2ccccc2)n1C (configuration not stated) | 10.3 µM [rising, partial curve, poor fit] | –
2 | Cc1cccc(NC(=S)NCCc2ccccc2)n1 | 1 µM [rising, partial curve, poor fit] | –
3 | CCOc1ccc2[nH]c(=O)c(CN(CC3COCCO3)C(=O)c3ccco3)cc2c1 (configuration not stated) | 5.8 µM [falling, partial curve, poor fit] | –
4 | Clc1ccccc1-c1nc2ccccc2c2nncn12 | 13 µM [rising, single point] | –
5 | Cc1ccc(S(=O)(=O)N(C)CCCC(=O)n2nc(C)cc2C)cc1 | 2.06 µM [falling, single point] | –
6 | O=C(Nc1cccc2ccccc12)C(=O)C1C(=O)Nc2ccccc21 (configuration not stated) | 8.91 µM [falling, partial curve, poor fit] | –
7 | c1ccc(C2=Nc3ccccc3OC2)cc1 | 29.1 µM [falling, single point] | –
8 | CCCCOC(=O)Nc1cc(OC)c(Cl)cc1OC | 12.6 µM [rising, single point] | –
9 | CCO[C@@H]1OC(C(=O)Nc2ccccc2)=C[C@H](c2coc3ccccc3c2=O)[C@H]1CCCO | 25.1 µM [rising, single point] | –
10 | COc1ccccc1C(CCNCc1ccc(N(C)C)cc1)c1ccc(OC(C)C)cc1 (configuration not stated) | 17.8 µM [falling, single point] | –
11 | Cn1c(SCc2ccccc2Cl)nnc1-c1cnccn1 | 29.1 µM [falling, single point] | –
12 | COc1ccc(N(C)S(=O)(=O)c2cccc(C(=O)Nc3ccc(-n4cnnn4)cc3)c2)cc1 | 35.5 µM [falling, single point] | –
13 | O=C1CC(Sc2nnc(-c3ccccc3O)o2)C(=O)N1c1ccccc1 (configuration not stated) | 12.6 µM [falling, single point] | –
14 | COc1cccc(/C=N/NC(=O)C(C)Cn2cnc3ccccc32)c1 (configuration not stated) | 2.51 µM [falling, full curve, poor fit] | –
15 | O=C(c1ccccc1Br)N1N=C(c2ccccc2)CC1c1ccccc1F (configuration not stated) | 4.47 µM [falling, partial curve, poor fit] | –
16 | CC(/C=C1\SC(=S)N(NC(=O)c2ccccc2C)C1=O)=C\c1ccccc1 | 2.91 µM [falling, partial curve, poor fit] | –
17 | O=C(COC(=O)CNC(=O)c1ccccc1Cl)Nc1cc(C(F)(F)F)ccc1Cl | 25.9 µM [rising, partial curve, poor fit] | –
18 | O=C(Nc1nnc(CCN2CCCCC2)s1)c1ccccc1 | 3.55 µM [rising, full curve] | –
19 | COc1ccc(C2c3c(-c4ccccc4)n[nH]c3C(=O)N2c2ccc(C(=O)O)cc2)cc1 (configuration not stated) | 3.98 µM [falling, partial curve] | –
20 | CC(NC(=S)NCCc1ccccc1)C(c1cccs1)N1CCN(Cc2ccccc2)CC1 (configuration not stated) | – | 20.6 µM [rising, partial curve, poor fit]

Row | Structure (SMILES) | AC50 [1] | AC50 [2]
21 | Cc1ccc(CSc2nnc(SCC(=O)N/N=C/C=C/c3ccco3)s2)cc1 | 8.2 µM [falling, partial curve] | –
22 | CCOC(=O)/C=C/c1nc(C(=O)OCC)c(C)c(=O)[nH]1 | 25.1 µM [falling, single point] | –
23 | N#CC(C#N)=C(Nc1ccc(F)cc1)SCc1cccc(Br)c1 | 6.51 µM [falling, full curve, poor fit] | –
24 | O=C(CCC(=O)Nc1ccc(Br)cc1)N/N=C/c1ccc(F)cc1 | 6.31 µM [rising, partial curve, poor fit] | –
25 | CC(C)C[C@H](NC(=O)[C@@H]1Cc2ccccc2CN1C(=O)OC(C)(C)C)C(=O)NCC1CCC(C(=O)O)CC1 (some centres not stated) | 17.8 µM [falling, single point] | –
26 | COc1ccc(C2C(C(=O)N3CCCC3)CC(=O)N2c2ccc(OC)cc2)cc1 (configuration not stated) | 5.17 µM [rising, partial curve, poor fit] | –
27 | CO/N=C/c1c(-c2ccccc2)nn(C)c1Cl | 2.82 µM [falling, partial curve, poor fit] | –
28 | CC(C)NC(=O)NC(=O)COC(=O)CCCSc1nc2ccccc2s1 | 6.51 µM [falling, partial curve, poor fit] | 0.082 µM [rising, full curve, poor fit]
29 | COc1ccc(Cl)cc1NC(=S)N1CCN(c2ncccn2)CC1 | 22.4 µM [rising, partial curve, poor fit] | –
30 | COc1ccc(-n2cc(-c3ccccc3)[nH]c2=S)cc1 | 4.11 µM [rising, single point] | –
31 | O=C(CSc1ncccc1C(=O)Oc1ccccc1Cl)Nc1ccc(C(F)(F)F)cc1Cl | 0.708 µM [rising, full curve] | –
32 | CC(=O)c1c(C)[nH]c(C)c1C(C)=O | 35.5 µM [falling, single point] | –
33 | C=CCn1c(SCC(=O)NCC2CCCO2)nc2sc(C)c(C)c2c1=O (configuration not stated) | 5.62 µM [falling, single point] | –
34 | N#C/C(=C\c1ccccc1C(=O)O)c1nc2ccccc2[nH]1 | 12.6 µM [falling, single point] | –
35 | CCN1CCN(S(=O)(=O)c2ccc(Br)s2)CC1 | 3.66 µM [rising, partial curve, poor fit] | –
36 | Cc1cccc([C@@H]2[C@@H]3C(=O)N(Cc4ccccc4)C(=O)[C@@H]3[C@]3(Cc4ccc(Cl)cc4)C(=O)N(c4ccc(Br)cc4)C(=O)N23)c1 | 2.24 µM [falling, full curve, poor fit] | –
37 | Cc1cccc(OCC(=O)NCc2cc(C)nc3ccccc23)c1 | 3.55 µM [falling, full curve, poor fit] | –
38 | O=C(CN1CCSCC1)N/N=C/c1ccc(F)cc1F | 14.6 µM [rising, partial curve, poor fit] | –
39 | COc1ccc(C2NCCc3c2[nH]c2ccccc32)cc1CSc1nc2ccccc2s1 (configuration not stated) | 23.1 µM [falling, single point] | 20.6 µM [rising, single point]
40 | Cc1ccc(S(=O)(=O)N(CC(=O)N2CCc3ccccc3C2)c2cccc(Cl)c2)cc1 | 12.6 µM [falling, partial curve, poor fit] | –

Record cards, from the list above.
O=C(CN1CCSCC1)N/N=C/c1ccc(F)cc1F in the list: AC50 [1]: 14.6 µM [rising, partial curve, poor fit]
Cc1cccc([C@@H]2[C@@H]3C(=O)N(Cc4ccccc4)C(=O)[C@@H]3[C@]3(Cc4ccc(Cl)cc4)C(=O)N(c4ccc(Br)cc4)C(=O)N23)c1 in the list: AC50 [1]: 2.24 µM [falling, full curve, poor fit]
